# Data as given in patent publication US20250109127A1, “METHODS OF USE OF PHENOXYPROPYLAMINE COMPOUNDS TO TREAT DEPRESSION” (Minerva Neurosciences, Inc., priority 2013, published 2025).
# Values joined by “and” are separate entries in the source; they are usually repeats but may differ in a detail not shown here. Equal values may be shown once. Further values from the same series stand in other lists.
# Legend:
# Type in all cases: in vivo
# Details in all cases: Citalopram 10 mg/kg I.P.
# [1] = tested on: norepinephrin release in the rat prefrontal cortex; assay: Microdialysis: norepinephrine release in prefrontal cortex after I.P. administration
# Experimental: (§1) The aim of the study was to evaluate, using microdialysis, the effects of an intraperitoneal (I.P.) administration in rats of three different doses of SON-117 on dopamine and its metabolites, serotonin and its metabolite (5-HIAA), and norepinephrine levels in prefrontal cortex.
# (§2) Thirty-two adult male Wistar rats were used for the whole study (4 groups of eight animals planned for the study, Table 1).
# (§3) Surgery was performed on rats weighing about 300 g at the beginning of the experiments. Rats were anaesthetized with Ketamine (50 mg/kg) & Xylazine (15 mg/kg) by intramuscular administration. The animals were placed in a stereotaxic apparatus in the flat-skull position at a constant setting of −3.3 mm between ear bars and the incisor bar. The animals were treated with a local anesthesic (xylocaine 1%, Astra Zeneca) and an analgesic (Temgesic, from Schering Plough, 0.05 mg/kg, s.c.). A rostrocaudal midline incision was made with a lancet to expose the dorsal skull surface. The “stereotaxic zero” was defined by the Bregma in accordance with Paxinos and Watson's atlas (1986). A hole was drilled in the skull with a drill and the meninges were pierced with a sterile needle to implant a CMA12 guide cannula which later received the dialysis probe.
# (§4) Coordinates used for implanting guide cannula in prefrontal cortex from Bregma were anteroposterior 3.7 mm, mediolateral 0.8 mm, and dorsoventral −2 mm (top of the probe was at −5 mm). The guide cannula was fixed to the skull with two stainless steel screws (1.88 mm outside diameter) anchored. An application of dental cement was added. A plastic collar allowed each animal to be tethered to a Swivel assembly of the CMA 120 awake animal system. Following surgery, rats were kept in individual cages and allowed to recover for a minimum of 3-5 days before the experimentation. The rats were handled and put in plastic bowl for 10 min at least every day to habituate the animals to their new environment for the dialysis. An I.P. administration with saline was also performed every day.
# (§5) Dialysis probes (CMA12/3 mm, membrane, 20 kD cut-off, Carnegie Medicine, Stockholm, Sweden), were carefully washed before inserting into the guide cannula. The wash was performed with the artificial cerebrospinal fluid (aCSF) medium (NaCl 147 mM, KCl 2.7 mM, CaCl2 1.2 mM, MgCl2 0.85 mM) at room temperature. The dialysis system was then equilibrated at 20° C. at a perfusion rate of 1 μl/min with a Carnegie pump (CMA100). All catheters (FEP tubing, internal volume of 1.2 μl/10 cm, and tubing adaptors) used for microdialysis were treated in the same conditions.
# (§6) The probes duly prepared were inserted into the guide cannula and the CMA120 Swivel assembly secured to the animal using a plastic collar. Flow through the dialysis probe with aCSF was maintained at a rate of 1 μl/min during the whole experimentation. The first four fractions (corresponding to 2 hours) were discarded to avoid the effects of parenchymal disturbance and to ensure that an approximate steady-state level was reached. Fractions were then collected over a period of 8.5 h during which time the animals remained quiet. The dialysates were automatically collected with an autosampler (microfraction collector CMA 140, Carnegie Medicin) and stored at −80° C. until analysis. […] Perfusion was then maintained for 7 hours with aCSF. The dialysates (30 μl) were collected into 300 μl vials, transferred into dry ice and then kept frozen (−80° C.) until analysis. Frozen samples were shipped to a partner for analysis. At the end of the microdialysis study, a PBS with colored ink was perfused through the probe in order to visualize the dialyzed area.
# (§7) Catecholamine assay: Concentrations of dopamine, DOPAC, HVA, 5-HIAA, 5-HT, and norepinephrin were determined for each sample by HPLC coupled with electrochemical detection. […]
# [2] = tested on: DOPAC release in the rat prefrontal cortex; assay: Microdialysis: DOPAC release in prefrontal cortex after I.P. administration
# Experimental: as §1, §2, §3, §4, §5, §6
# (§8) Catecholamine assay: Concentrations of dopamine, DOPAC, HVA, 5-HIAA, 5-HT, and norepinephrin were determined for each sample by HPLC coupled with electrochemical detection.
# [3] = tested on: dopamine release in the rat prefrontal cortex; assay: Microdialysis: dopamine release in prefrontal cortex after I.P. administration
# Experimental: as §1, §2, §3, §4, §5, §6, §8
# [4] = tested on: 5-HIAA release in the rat prefrontal cortex; assay: Microdialysis: 5-HIAA release in prefrontal cortex after I.P. administration
# Experimental: as §1, §2, §3, §4, §5, §6, §8
# [5] = tested on: HVA release in the rat prefrontal cortex; assay: Microdialysis: HVA release in prefrontal cortex after I.P. administration
# Experimental: as §1, §2, §3, §4, §5, §6, §8
# [6] = tested on: 5-HT release in the rat prefrontal cortex; assay: Microdialysis: 5-HT release in prefrontal cortex after I.P. administration
# Experimental: as §1, §2, §3, §4, §5, §6, §7
compound,measurement,setting,value
"CN(C)CCCC1(c2ccc(F)cc2)OCc2cc(C#N)ccc21 (centres unmarked) [Citalopram, citalopram, reference compound]","NOREPINEPHRIN in dialysate, individual animals",[1]; T0-T30 min,74.79 % of respective basal and 96.79 % of respective basal and 91.31 % of respective basal and 76.07 % of respective basal and 83.3 % of respective basal and 80.39 % of respective basal and 120.29 % of respective basal and 37.71 % of respective basal
same,"NOREPINEPHRIN in dialysate, individual animals",[1]; T6 h 30-T7 h,68.60 % of respective basal and 129.94 % of respective basal and 27.54 % of respective basal
same,"NOREPINEPHRIN in dialysate, individual animals",[1]; T-30 min-T0 (pre-dose),100.18 % of respective basal and 96.27 % of respective basal and 99.84 % of respective basal and 92.54 % of respective basal and 84.33 % of respective basal and 118.10 % of respective basal and 75.28 % of respective basal
same,"NOREPINEPHRIN in dialysate, individual animals",[1]; T-1 h 30-T-1 h (pre-dose),91.50 % of respective basal and 102.97 % of respective basal and 110.56 % of respective basal and 110.16 % of respective basal and 56.34 % of respective basal and 85.71 % of respective basal
same,"NOREPINEPHRIN in dialysate, individual animals",[1]; T-1 h-T-30 min (pre-dose),108.51 % of respective basal and 96.85 % of respective basal and 103.73 % of respective basal and 100.16 % of respective basal and 96.91 % of respective basal and 105.50 % of respective basal and 125.55 % of respective basal and 139.00 % of respective basal
same,"DOPAC in dialysate, individual animals",[2]; T0-T30 min,93.99 % of respective basal and 83.62 % of respective basal and 112.02 % of respective basal and 110.56 % of respective basal and 84.96 % of respective basal and 81.33 % of respective basal and 69.89 % of respective basal and 107.55 % of respective basal
same,"DOPAC in dialysate, individual animals",[2]; T6 h 30-T7 h,99.41 % of respective basal and 102.68 % of respective basal and 143.96 % of respective basal
same,"DOPAC in dialysate, individual animals",[2]; T-30 min-T0 (pre-dose),99.79 % of respective basal and 95.64 % of respective basal and 108.55 % of respective basal and 108.69 % of respective basal and 99.61 % of respective basal and 84.52 % of respective basal and 67.92 % of respective basal and 108.60 % of respective basal
same,"DOPAC in dialysate, individual animals",[2]; T-1 h 30-T-1 h (pre-dose),102.94 % of respective basal and 92.54 % of respective basal and 99.21 % of respective basal and 111.33 % of respective basal and 155.92 % of respective basal and 77.39 % of respective basal
same,"DOPAC in dialysate, individual animals",[2]; T-1 h-T-30 min (pre-dose),97.26 % of respective basal and 111.85 % of respective basal and 91.46 % of respective basal and 91.31 % of respective basal and 101.18 % of respective basal and 104.15 % of respective basal and 76.13 % of respective basal and 114.03 % of respective basal
same,"DOPAMINE in dialysate, individual animals",[3]; T0-T30 min,179.63 % of respective basal and 83.92 % of respective basal and 103.86 % of respective basal and 49.65 % of respective basal and 68.83 % of respective basal and 258.63 % of respective basal and 124.48 % of respective basal
same,"DOPAMINE in dialysate, individual animals",[3]; T-30 min-T0 (pre-dose),162.70 % of respective basal and 92.21 % of respective basal and 56.27 % of respective basal and 98.12 % of respective basal and 109.32 % of respective basal and 89.74 % of respective basal and 120.02 % of respective basal and 121.94 % of respective basal
same,"DOPAMINE in dialysate, individual animals",[3]; T-1 h 30-T-1 h (pre-dose),66.18 % of respective basal and 102.55 % of respective basal and 71.08 % of respective basal
same,"DOPAMINE in dialysate, individual animals",[3]; T-1 h-T-30 min (pre-dose),42.17 % of respective basal and 109.98 % of respective basal and 143.76 % of respective basal and 103.07 % of respective basal and 96.29 % of respective basal and 144.11 % of respective basal and 62.54 % of respective basal and 100.17 % of respective basal
same,"5-HIAA in dialysate, individual animals",[4]; T0-T30 min,113.55 % of respective basal and 90.94 % of respective basal and 128.69 % of respective basal and 122.21 % of respective basal and 102.91 % of respective basal and 100.32 % of respective basal and 96.43 % of respective basal and 123.47 % of respective basal
same,"5-HIAA in dialysate, individual animals",[4]; T6 h 30-T7 h,63.13 % of respective basal and 77.37 % of respective basal and 75.78 % of respective basal
same,"5-HIAA in dialysate, individual animals",[4]; T-30 min-T0 (pre-dose),110.34 % of respective basal and 99.39 % of respective basal and 105.29 % of respective basal and 103.60 % of respective basal and 103.56 % of respective basal and 97.47 % of respective basal and 93.29 % of respective basal and 105.37 % of respective basal
same,"5-HIAA in dialysate, individual animals",[4]; T-1 h 30-T-1 h (pre-dose),90.36 % of respective basal and 98.60 % of respective basal and 99.47 % of respective basal and 95.83 % of respective basal and 117.59 % of respective basal and 82.96 % of respective basal
same,"5-HIAA in dialysate, individual animals",[4]; T-1 h-T-30 min (pre-dose),99.30 % of respective basal and 102.01 % of respective basal and 94.71 % of respective basal and 91.40 % of respective basal and 96.98 % of respective basal and 106.69 % of respective basal and 89.12 % of respective basal and 111.67 % of respective basal
same,"HVA in dialysate, individual animals",[5]; T-1 h 30-T-1 h (pre-dose),96.85 % of respective basal and 107.64 % of respective basal and 146.16 % of respective basal and 75.28 % of respective basal
same,"HVA in dialysate, individual animals",[5]; T-1 h-T-30 min (pre-dose),97.80 % of respective basal and 96.30 % of respective basal and 98.15 % of respective basal and 89.04 % of respective basal and 96.35 % of respective basal and 102.63 % of respective basal and 82.52 % of respective basal and 116.32 % of respective basal
same,"5-HT in dialysate, individual animals",[6]; T0-T30 min,59.09 % of respective basal and 54.82 % of respective basal and 123.43 % of respective basal and 89.05 % of respective basal and 57.41 % of respective basal and 137.48 % of respective basal and 95.22 % of respective basal and 65.30 % of respective basal
same,"5-HT in dialysate, individual animals",[6]; T6 h 30-T7 h,67.20 % of respective basal and 193.93 % of respective basal and 93.41 % of respective basal and 57.68 % of respective basal
same,"5-HT in dialysate, individual animals",[6]; T-30 min-T0 (pre-dose),109.92 % of respective basal and 84.25 % of respective basal and 83.73 % of respective basal and 103.39 % of respective basal and 69.44 % of respective basal and 91.49 % of respective basal and 90.29 % of respective basal and 68.25 % of respective basal
same,"5-HT in dialysate, individual animals",[6]; T-1 h 30-T-1 h (pre-dose),111.65 % of respective basal and 104.59 % of respective basal and 126.75 % of respective basal and 105.38 % of respective basal and 71.17 % of respective basal and 131.14 % of respective basal
same,"5-HT in dialysate, individual animals",[6]; T-1 h-T-30 min (pre-dose),79.05 % of respective basal and 111.13 % of respective basal and 116.00 % of respective basal and 96.78 % of respective basal and 103.66 % of respective basal and 99.99 % of respective basal and 137.97 % of respective basal and 102.12 % of respective basal
